From PMC8941131
Where a chain is given by its changes, count along the chain named. No constants are given. Whether binding was seen depends on the method and setting. In cells and extracts the contact can be indirect. Some binding calls cover weakened binding; strength is not graded here. For some of these results: Sequences can lack the tags named with a protein.

By UniProt entry, the sequences of proteins in these tests, tags left out.
UniProt P31749: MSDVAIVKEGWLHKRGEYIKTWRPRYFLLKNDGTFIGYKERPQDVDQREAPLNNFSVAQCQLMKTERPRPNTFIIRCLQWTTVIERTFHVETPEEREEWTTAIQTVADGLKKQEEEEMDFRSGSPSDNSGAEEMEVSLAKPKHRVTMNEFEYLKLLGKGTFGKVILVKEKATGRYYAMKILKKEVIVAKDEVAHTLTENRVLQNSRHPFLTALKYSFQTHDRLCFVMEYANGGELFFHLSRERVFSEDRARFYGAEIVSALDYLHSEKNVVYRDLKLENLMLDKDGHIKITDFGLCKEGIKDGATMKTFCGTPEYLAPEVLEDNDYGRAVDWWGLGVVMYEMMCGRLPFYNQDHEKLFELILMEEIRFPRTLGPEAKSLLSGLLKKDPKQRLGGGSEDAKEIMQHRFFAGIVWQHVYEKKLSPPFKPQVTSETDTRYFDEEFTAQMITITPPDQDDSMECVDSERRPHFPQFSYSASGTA

Key:
Test in all cases: co-IP; immunoprecipitation (anti-Flag or anti-HA agarose, 2-4 h at 4 °C) from whole cell lysates of co-transfected 293T cells; EBC lysis buffer, four washes with NETN buffer, immunoblot; in some panels with HA-S6K1-R3A or knock-down of 14-3-3γ
Flag-PDK1-P551A = biological target: T1, Flag-PDK1-P551A (UniProt O15530)
T1 sequence: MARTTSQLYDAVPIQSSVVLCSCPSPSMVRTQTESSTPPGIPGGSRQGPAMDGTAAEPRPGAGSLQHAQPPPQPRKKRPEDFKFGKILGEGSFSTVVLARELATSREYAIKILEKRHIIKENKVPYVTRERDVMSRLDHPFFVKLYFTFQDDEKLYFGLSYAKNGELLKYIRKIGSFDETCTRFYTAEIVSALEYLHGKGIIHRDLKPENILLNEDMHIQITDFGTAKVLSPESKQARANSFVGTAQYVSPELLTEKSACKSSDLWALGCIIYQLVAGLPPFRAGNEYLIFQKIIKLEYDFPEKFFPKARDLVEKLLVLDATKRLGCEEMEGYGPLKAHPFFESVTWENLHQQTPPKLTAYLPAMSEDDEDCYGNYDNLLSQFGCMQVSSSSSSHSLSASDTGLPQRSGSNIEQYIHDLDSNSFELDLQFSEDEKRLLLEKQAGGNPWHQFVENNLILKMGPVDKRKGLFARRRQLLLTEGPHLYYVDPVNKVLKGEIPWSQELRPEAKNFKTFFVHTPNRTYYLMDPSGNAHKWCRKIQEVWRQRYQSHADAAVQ

PDK1-P551Q = biological target: T2, PDK1-P551Q (UniProt O15530)
T2 sequence: T1 sequence with A551Q

Flag-PDK1-P551L = biological target: T3, Flag-PDK1-P551L (UniProt O15530)
T3 sequence: T1 sequence with A551L

Flag-PDK1-S549A = biological target: T4, Flag-PDK1-S549A (UniProt O15530)
T4 sequence: T1 sequence with S549A, A551P

Measured: binding

HA-AKT1 (from UniProt P31749 1-480) (enzyme)
binds: Flag-PDK1-P551A | PDK1-P551Q | Flag-PDK1-P551L | Flag-PDK1-S549A
